Results: patent US7064141B1, “Method for preventing, treating or inhibiting development of simple retinopathy and preproliferative retinopathy” (Takeda Pharmaceutical Company Limited, priority 1999, dated 2006)

Experiment: Plasma glucose of diabetic rats (STZ-injected SHRSP)
Type: in vivo, rat
Experimental: • Compound 1: (±)-1-(cyclohexyloxycarbonyloxy) ethyl-2-ethoxy-1-[[2′-(1H-tetrazol-5-yl)biphenyl-4-yl]methyl]-1H-benzimidazole-7-carboxylate (Compound 1) Method: Streptozotocin (STZ) was intravenously injected at a dose of 30 mg/kg to 10-week old male rats (Stroke-Prone Spontaneously Hypertensive Rat:SHRSP). When 9 weeks had passed since the injection of STZ, the blood sugar values of the rats were measured. The rats were divided into 3 groups, that is, a group before the administration, a solvent-administered control group and an administered group with the compound 1 (3 mg/kg/day, p.o.). Four weeks after, the blood sugar values and the retinal potentials were measured, and then, the rats were killed by bleeding by discission of the aorta abdominalis under deep ether anesthetization so as to remove the eyeball. A suspension of the compound 1 in a 0.5% methylcellulose-containing physiological saline was orally administered to the rats once a day for 4 weeks. On the other hand, 23-week old SHRSP rats were used as an untreated group.
The blood sugar value was measured by the following method. The blood was collected from the veins of the tails using heparin and subjected to centrifugation to collect the blood plasma. The amount of glucose in the plasma was measured using an autoanalyzer (Model 7070, manufactured by Hitachi Seisakusho).

SMILES: CCOc1nc2cccc(C(=O)OC(C)OC(=O)OC3CCCCC3)c2n1Cc1ccc(-c2ccccc2-c2nnn[nH]2)cc1 (racemic) [Compound 1, (±)-1-(cyclohexyloxycarbonyloxy) ethyl-2-ethoxy-1-[[2′-(1H-tetrazol-5-yl)biphenyl-4-yl]methyl]-1H-benzimidazole-7-carboxylate]
- Plasma glucose (STZ-diabetic SHRSP rats, 3 mg/kg/day p.o. once a day for 4 weeks, n = 4, average ± standard deviation): 525 ± 35 mg/dL
- Concentration of glucose in the plasma, in words (compared with the group before the administration and the control group, 3 mg/kg/day p.o., 4 weeks): no difference in concentration
